# ± gives the standard deviation. The entries are a selection whose mix differs from that of the whole data set. Many of these values have a large error.
# System: MIWI (PIWIL1) piRISC loaded with piRNA #1 (30 nt)
# Assay: pre-steady-state target cleavage rate (min^-1); MIWI and MILI are mouse PIWI proteins and EfPiwi is from a freshwater sponge; tags in brackets are library labels; higher = faster piRNA-guided slicing of the target
# Conditions: guide: piRNA #1 5'p-UGAGGUAGUAGGUUGUAUAGUAUCCAGAGG; auxiliary factor: 500 nM mouse GTSF1
# Procedure, shortened: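 Cleave-'n-Seq reactions paired 0.1 nM transcribed, DNA-blocked target RNA library with 1 nM active affinity-purified piRISC holding one synthetic guide, plus or minus 500 nM GTSF1 partner protein, in HEPES–potassium acetate buffer at 33 °C for 0–8 or 0–960 min. After sequencing of uncleaved targets and normalisation to depth and weakly complementary targets, the pre-steady-state cleavage rate was taken from a burst-and-steady-state fit. Three trials were pooled, and k3 was capped at 0.0001 min^-1.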
row,Sequence,pre-steady-state target cleavage rate
1,GGAGACCUAUGAAUACAACCUACUUCGUCA,0.000247 ± 0.0085
2,GGAGACCUAUGAUUACCAACCUACUACCUCA,0.000645 ± 0.0055
3,GGAGACCUAUGAUAUCCACCUACUACCUCA,0.000171 ± 0.017
4,GGAGACCUAUGAUUACAACUACUACCUCA,0.000545 ± 0.0076
5,GGAGACCUAUGUAUACAACCUUCUUCCUCA,0.00196 ± 0.0022
6,GGAGACCUAUGUAUACAACGUUCUACCUCA,0.00134 ± 0.0031

# Source: the supplement of paper PMC10338343
